This is an account of results in ChEMBL document CHEMBL3352352, “Structure-Based Drug Design of Novel, Potent, and Selective Azabenzimidazoles (ABI) as ATR Inhibitors” (ACS Med Chem Lett, 2015).

A value given as a limit tells only on which side of the number the result lay.

The data set can be described thus: Solubility of the compound in PBS buffer at pH 7 by shake flask equilibrium solubility assay.

For `C[C@@H]1COCCN1c1nc(-c2cncc3[nH]ccc23)cc2c1ncn2C`, the thermodynamic solubility – broadly, the concentration in solution at equilibrium with solid – was over 1700 µM.
